Data from paper PMC11377297, “Mechanical disengagement of the cohesin ring” (Nature Structural & Molecular Biology, 2023).
These are yes or no findings as the source states them, for the method shown. Some results given as binding are weak or reduced against the parent protein; the word gives no strength. For some of these results: Tags and fused reporters may be left off the sequences shown.

Tests used:
Assay in all cases: co-purification of the recombinant complex (SDS-PAGE, Coomassie); purified cohesin complex resolved by SDS-PAGE; purification methods in the Supplementary Information
[1] = target: T1, Smc3^Psm3-CLIP-biotin subunit of the fission yeast cohesin tetramer (head-tagged variant) (fission yeast) (UniProt O42649)
T1 sequence (chain, biotin on the CLIP-tag): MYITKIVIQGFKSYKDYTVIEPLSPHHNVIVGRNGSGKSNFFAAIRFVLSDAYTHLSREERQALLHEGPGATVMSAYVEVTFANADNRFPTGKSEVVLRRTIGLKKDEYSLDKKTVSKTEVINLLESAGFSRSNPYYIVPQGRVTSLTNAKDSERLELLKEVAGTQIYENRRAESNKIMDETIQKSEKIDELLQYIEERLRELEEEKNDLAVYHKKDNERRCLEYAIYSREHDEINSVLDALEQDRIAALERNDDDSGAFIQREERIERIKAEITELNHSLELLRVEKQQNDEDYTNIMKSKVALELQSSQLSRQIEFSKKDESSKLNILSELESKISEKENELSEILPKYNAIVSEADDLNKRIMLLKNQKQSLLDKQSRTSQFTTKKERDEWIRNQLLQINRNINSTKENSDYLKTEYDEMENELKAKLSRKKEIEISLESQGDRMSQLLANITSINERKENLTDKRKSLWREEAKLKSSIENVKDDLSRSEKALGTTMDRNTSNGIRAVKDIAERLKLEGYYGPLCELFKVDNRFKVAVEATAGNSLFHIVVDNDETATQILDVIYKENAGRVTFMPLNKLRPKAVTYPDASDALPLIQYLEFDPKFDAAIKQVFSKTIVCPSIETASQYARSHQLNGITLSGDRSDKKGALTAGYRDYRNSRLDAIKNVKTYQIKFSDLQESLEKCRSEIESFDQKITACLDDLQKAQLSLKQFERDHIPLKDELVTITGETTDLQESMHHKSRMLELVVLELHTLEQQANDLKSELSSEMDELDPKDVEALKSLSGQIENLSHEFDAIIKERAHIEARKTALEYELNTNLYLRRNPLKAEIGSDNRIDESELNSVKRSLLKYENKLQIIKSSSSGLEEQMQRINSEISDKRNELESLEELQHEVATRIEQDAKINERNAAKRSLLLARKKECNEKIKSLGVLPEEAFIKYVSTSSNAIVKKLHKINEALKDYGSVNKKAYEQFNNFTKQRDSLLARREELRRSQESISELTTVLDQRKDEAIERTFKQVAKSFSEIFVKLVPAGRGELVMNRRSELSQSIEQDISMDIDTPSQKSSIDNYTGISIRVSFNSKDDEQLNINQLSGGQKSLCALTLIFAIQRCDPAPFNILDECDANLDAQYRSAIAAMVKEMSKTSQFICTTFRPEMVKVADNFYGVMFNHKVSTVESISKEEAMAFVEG

[2] = target: T2, Smc1^Psm1-SNAP subunit of the fission yeast cohesin tetramer (head-tagged variant, TMR-labelled) (fission yeast) (UniProt O94383)
T2 sequence (chain, TMR fluorophore on the SNAP-tag): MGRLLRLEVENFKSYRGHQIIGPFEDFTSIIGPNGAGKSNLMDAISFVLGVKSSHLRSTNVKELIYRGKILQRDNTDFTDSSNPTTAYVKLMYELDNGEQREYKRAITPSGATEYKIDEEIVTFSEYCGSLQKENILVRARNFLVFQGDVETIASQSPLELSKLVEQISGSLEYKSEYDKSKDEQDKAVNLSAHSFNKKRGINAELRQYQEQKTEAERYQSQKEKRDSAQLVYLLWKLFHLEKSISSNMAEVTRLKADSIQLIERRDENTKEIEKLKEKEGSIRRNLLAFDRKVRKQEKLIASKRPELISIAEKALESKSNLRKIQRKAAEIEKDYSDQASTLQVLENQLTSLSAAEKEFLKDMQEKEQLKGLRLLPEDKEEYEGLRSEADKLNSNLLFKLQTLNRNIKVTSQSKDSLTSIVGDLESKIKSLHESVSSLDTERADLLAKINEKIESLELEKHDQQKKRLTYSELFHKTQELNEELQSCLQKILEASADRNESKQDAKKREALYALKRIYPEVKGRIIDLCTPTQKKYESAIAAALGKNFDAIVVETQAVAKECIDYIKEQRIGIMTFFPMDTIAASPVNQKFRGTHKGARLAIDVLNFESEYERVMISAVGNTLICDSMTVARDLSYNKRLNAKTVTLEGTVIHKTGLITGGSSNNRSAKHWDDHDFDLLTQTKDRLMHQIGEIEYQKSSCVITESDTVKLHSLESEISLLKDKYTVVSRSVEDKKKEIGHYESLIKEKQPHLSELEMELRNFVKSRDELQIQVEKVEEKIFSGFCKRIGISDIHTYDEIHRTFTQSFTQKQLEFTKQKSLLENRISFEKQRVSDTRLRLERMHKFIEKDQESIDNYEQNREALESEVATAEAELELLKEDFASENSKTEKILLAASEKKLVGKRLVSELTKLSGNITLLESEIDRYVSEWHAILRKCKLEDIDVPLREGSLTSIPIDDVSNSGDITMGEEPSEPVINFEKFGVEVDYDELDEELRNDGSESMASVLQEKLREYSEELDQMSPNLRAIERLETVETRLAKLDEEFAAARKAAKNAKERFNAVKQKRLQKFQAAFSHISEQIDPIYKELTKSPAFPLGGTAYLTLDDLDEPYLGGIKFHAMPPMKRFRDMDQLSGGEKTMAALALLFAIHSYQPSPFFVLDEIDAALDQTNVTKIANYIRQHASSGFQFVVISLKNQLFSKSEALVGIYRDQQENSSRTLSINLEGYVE

[3] = target: T3, Scc1^Rad21 kleisin subunit of the fission yeast cohesin tetramer (fission yeast) (UniProt P30776)
T3 sequence: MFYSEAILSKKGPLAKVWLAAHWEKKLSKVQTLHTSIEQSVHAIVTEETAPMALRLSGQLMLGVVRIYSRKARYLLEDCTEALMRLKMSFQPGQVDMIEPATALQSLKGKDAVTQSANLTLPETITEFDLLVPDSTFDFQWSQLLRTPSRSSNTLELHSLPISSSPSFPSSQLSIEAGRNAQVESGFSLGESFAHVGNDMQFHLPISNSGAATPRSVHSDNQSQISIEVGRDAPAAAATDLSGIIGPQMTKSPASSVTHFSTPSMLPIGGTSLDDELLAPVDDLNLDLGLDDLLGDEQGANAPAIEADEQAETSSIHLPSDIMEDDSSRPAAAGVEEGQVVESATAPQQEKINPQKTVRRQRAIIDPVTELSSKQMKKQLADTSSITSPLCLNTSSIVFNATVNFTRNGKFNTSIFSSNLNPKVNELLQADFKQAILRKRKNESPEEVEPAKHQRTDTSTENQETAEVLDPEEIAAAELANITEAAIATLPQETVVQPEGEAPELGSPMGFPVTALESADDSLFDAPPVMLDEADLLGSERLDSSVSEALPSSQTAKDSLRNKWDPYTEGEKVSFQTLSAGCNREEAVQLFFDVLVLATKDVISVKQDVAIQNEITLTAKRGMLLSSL

[4] = target: T4, Smc3^Psm3-CLIP-biotin subunit with the CLIP-tag within the hinge region (hinge-tagged cohesin variant) (fission yeast) (UniProt O42649)
T4 sequence (chain, biotin on the CLIP-tag): T1 sequence (chain, biotin on the CLIP-tag)

B1: Scc1^Rad21 kleisin subunit of the fission yeast cohesin tetramer (protein, UniProt P30776 1-628)
chain: T3 sequence
binding [1]: binds | binding [2]: binds

B2: Scc3^Psc3 subunit of the fission yeast cohesin tetramer (protein, UniProt O13816 1-962)
chain: MSESVTTGSDDDGGDRESSPVMLSQSFDPMSSSSNSSSEENSDDDYEKTISSKKRHPRPNSKGVNVKRSRRNAIVEEDPQEEIFNNLFAFLLDQKVDTMDIAVSWFADYAKDNQSALANLINFILKCCGCNRAINVFDVQDQDSASATLSQIQLSVERTSTRDYPLNSKNLKFRNFRKRLTGLLSNFVSQLSIRNYLYNSTVFEDIMSWVVAMSSSTMRPIRHTATVFCLNIMTFLCEKSKELLNEHAIATKQLEKEEKRSRVNRNRINELNNSLGEIVKQQDTLTTYLNDYFDSVFVHRYRDVEPKIRVDCLQELGVWINTVPSIFFSGSYLRYLGWMLSDINTTVRLTVVKVLRKFFETDSFIGGLRHFSSRFKERILEMSCVDADIGVRVASIRLCNAMRTCGFLENSEILKVLKLILDINPRVQREAVLFLCKVVDESVNEKIDLWGEEDYILKAFSQTSLTTFSVHWIKFSQMCKLLEEVRLSYQSSFDYDTLLRIFQKNGNFITPITQALLNACEIDSIYQSWEDISNFVLFDNYTSTLKDPIDSILSFCKLNDFQESILLQLLSASIQTVCNNNFITPKTVHNKQAAETTNDQNKDKDLLYLNLLPYINSITERNSASPTLLHDSLRLLFSMDLTEMTDPQLSRHFELLINNLKKFFLTNNDLQIIQGCTILFLRLDSIPALKEDLKLLVTDICDQTVTEFLKNFGSFNIQDAVITKDEFVIFEACLTRIEGCTSLKDFSDYPEFDIIYERLVSLLSRVPNSYEDTLKFSAINTLQSLLFWFFLRKDNPADEEKKKDDETKVFNCLINIMNNDSSKILQLQAARTFLETVIMKEGVKASHYNDDNRVSEEHNFLKPQFLDALLKILEGWLYTYAKVGQFPFKRLTQASSPHTQISLDKNPLNRRLLEHVCCDLTSKLLIVVSLSNTITPEFSQQFCELRGHYGPKLSAIVDEFLN
binding [3]: binds

B3: Smc1^Psm1-SNAP subunit with the SNAP-tag within the hinge region (hinge-tagged cohesin variant, TMR-labelled) (protein, UniProt O94383 1-1228)
chain: T2 sequence (chain, TMR fluorophore on the SNAP-tag)
modifications: TMR fluorophore on the SNAP-tag
binding [4]: binds
